From publication PMC7962367
No constants are given. Whether binding was seen depends on the method and setting. Binding seen in cells or lysates may run through a third protein. Some binding calls cover weakened binding; strength is not graded here.

Sequences of proteins named here, by UniProt entry; tags and fusion partners are left off.
UniProt P63086: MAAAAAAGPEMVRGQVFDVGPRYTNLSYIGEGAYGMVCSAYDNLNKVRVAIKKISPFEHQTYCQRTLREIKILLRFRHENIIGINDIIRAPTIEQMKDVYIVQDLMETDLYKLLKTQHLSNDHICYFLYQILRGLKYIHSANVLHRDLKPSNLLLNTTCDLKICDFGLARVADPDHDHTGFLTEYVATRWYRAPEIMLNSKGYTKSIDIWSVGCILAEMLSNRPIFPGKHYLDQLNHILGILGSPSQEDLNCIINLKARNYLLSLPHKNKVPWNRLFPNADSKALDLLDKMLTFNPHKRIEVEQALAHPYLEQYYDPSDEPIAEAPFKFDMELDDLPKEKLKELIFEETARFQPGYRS

Biological target: T1, endogenous USP15 (rat (endogenous in rat articular chondrocytes)) (UniProt Q9R085)
T1 sequence: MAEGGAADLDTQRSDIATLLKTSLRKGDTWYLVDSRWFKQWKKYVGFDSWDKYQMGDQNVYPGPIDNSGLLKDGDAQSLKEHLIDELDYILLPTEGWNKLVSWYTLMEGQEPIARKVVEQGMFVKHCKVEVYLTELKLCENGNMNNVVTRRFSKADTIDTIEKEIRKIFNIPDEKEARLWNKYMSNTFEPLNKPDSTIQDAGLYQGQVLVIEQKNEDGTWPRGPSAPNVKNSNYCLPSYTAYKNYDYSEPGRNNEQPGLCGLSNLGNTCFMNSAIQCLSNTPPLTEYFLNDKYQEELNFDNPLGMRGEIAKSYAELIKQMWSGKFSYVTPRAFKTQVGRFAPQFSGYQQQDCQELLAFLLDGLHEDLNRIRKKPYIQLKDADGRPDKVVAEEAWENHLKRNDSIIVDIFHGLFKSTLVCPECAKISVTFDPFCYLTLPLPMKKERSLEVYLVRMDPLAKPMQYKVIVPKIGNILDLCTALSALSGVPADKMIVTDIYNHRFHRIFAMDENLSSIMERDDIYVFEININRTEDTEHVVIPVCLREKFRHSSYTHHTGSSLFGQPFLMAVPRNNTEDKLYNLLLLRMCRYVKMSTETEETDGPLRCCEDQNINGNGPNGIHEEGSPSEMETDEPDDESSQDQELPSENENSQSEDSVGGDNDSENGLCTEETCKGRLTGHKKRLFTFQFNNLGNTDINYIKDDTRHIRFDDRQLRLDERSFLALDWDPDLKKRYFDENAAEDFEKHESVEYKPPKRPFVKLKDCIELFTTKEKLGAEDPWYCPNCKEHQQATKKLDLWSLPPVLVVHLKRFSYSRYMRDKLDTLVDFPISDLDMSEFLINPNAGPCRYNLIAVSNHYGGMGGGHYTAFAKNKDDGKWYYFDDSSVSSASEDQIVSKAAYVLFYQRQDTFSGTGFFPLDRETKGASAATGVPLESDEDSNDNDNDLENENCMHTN
Experiment: co-IP; rat articular chondrocytes lysed in RIPA buffer; immunoprecipitation with anti-USP15 antibody and Protein A/G PLUS-Agarose overnight at 4 °C, four washes in RIPA; blots with anti-USP15 or anti-ERK2; IgG as negative control

“endogenous ERK2 (from UniProt P63086 1-358) (enzyme)” was tested, and the binding was “binds”.
